Laboratory results as given in publication PMC7443147.
These are yes or no findings as the source states them, for the method shown. Binding seen in cells or lysates may run through a third protein. Some entries that bind do so weakly or less than the wild type. For some assays here: Where a sequence is shown, tags or fusion partners need not be part of it.

By UniProt entry, the sequences of proteins in these tests, tags left out.
UniProt O96028: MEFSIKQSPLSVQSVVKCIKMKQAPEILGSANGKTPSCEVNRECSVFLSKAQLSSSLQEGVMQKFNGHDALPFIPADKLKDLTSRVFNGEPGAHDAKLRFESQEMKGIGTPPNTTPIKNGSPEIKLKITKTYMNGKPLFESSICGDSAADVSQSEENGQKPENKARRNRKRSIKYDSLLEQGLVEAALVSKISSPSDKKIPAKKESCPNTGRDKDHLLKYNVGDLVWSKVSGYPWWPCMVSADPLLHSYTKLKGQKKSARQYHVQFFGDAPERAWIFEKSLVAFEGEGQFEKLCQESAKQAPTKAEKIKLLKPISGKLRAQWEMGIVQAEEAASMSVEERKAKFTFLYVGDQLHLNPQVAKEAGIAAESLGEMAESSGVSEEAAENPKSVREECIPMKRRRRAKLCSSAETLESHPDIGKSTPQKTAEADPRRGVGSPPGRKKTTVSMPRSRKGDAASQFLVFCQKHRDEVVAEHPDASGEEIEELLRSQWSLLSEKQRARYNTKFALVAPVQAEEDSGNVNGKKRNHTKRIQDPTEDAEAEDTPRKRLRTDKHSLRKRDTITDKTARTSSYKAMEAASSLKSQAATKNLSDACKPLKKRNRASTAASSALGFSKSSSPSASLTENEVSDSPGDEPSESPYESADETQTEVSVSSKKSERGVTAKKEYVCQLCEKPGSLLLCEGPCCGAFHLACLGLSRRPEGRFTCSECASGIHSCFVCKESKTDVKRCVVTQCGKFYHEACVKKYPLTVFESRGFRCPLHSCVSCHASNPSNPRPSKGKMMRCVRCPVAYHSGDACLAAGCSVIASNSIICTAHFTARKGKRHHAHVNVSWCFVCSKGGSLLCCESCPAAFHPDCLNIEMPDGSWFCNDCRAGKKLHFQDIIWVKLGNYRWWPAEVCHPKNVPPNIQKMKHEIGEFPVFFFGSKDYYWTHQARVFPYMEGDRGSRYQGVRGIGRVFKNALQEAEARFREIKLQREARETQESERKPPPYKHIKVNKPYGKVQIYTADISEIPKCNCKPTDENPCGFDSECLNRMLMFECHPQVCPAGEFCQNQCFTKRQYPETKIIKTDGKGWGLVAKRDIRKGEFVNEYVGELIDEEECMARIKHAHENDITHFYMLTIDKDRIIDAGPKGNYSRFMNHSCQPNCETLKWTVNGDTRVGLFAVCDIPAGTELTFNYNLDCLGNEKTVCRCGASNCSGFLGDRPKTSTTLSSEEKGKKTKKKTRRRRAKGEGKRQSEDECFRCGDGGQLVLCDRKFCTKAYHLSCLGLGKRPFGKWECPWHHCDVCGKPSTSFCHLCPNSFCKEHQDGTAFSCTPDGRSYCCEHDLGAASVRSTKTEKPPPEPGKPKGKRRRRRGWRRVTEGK

What was measured:
[1] = molecular target: flag-BRCA1 (human) (UniProt P38398); assay: co-IP; 293T cells transfected with flag-BRCA1; legend: immunoprecipitated with anti-flag antibody; methods: lysates after 48 h immunoprecipitated with an NSD2 antibody, protein A/G agarose, 2 h at 4 °C; immunoblot
[2] = molecular target: BRCA1 WT stably overexpressed in K562 cells (human) (UniProt P38398); assay: co-IP; K562 cells overexpressing BRCA1 WT or 4 mutant variants, treated with 30 µM hemin for 2 days and MG132 for 6 h; antibody of the immunoprecipitation not told
[3] = molecular target: T1, GST-BRCA1 del#2 (residues 400-1100) (human) (UniProt P38398); assay: pull-down; GST-BRCA1 or GST-BRCA1 deletion mutants incubated with extracts of K562 cells; eluted, SDS-PAGE, immunoblot; only the target purified
T1 sequence: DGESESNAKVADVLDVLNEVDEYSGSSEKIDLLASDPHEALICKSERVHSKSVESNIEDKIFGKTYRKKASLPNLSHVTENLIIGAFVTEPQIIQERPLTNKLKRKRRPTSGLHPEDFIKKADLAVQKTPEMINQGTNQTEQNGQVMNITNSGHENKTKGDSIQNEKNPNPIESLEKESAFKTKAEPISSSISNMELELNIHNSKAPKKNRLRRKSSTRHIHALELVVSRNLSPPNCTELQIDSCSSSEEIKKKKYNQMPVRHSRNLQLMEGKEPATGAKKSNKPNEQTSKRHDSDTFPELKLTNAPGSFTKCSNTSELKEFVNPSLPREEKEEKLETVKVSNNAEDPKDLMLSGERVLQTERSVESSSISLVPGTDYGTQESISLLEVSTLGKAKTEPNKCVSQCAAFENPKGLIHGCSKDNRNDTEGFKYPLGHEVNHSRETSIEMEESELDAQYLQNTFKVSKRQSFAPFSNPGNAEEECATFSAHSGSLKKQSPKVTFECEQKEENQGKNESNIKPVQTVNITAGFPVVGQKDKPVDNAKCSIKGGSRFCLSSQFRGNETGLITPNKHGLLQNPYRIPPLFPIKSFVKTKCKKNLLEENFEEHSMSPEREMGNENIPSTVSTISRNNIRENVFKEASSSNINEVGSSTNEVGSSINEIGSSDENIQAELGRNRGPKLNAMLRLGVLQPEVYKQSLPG

[4] = molecular target: GST-BRCA1 (human) (UniProt P38398); assay: as above
[5] = molecular target: BRCA1, endogenous in K562 cells (human (endogenous in K562)) (UniProt P38398); assay: co-IP; endogenous proteins; immunoprecipitated with anti-BRCA1 antibody from K562 cells treated with 30 µM hemin for 2 days and MG132 for 6 h

Row | binding [1] | binding [2] | binding [3] | binding [4] | binding [5] | Substance
1 | binds | – | – | – | – | NSD2 in 293T cells (from UniProt O96028 1-1365)
2 | – | binds | binds | binds | binds | NSD2, endogenous in K562 cells (from UniProt O96028 1-1365)
